# Measurements reported in patent US20110195892A1, “Artifical Pulmonary Surfactant Compositions” (priority 2005, published 2011).
# Square brackets hold non-standard residues; d marks the D form. Peptide text beside a SMILES is read from it.
# Assay: CD spectrum measurement (conformation of peptides)
# Assay type: physicochemical
# Settings: 20 mM Tes Buffer with 150 mM NaCl, 25° C., FIG. 1A
row,Compound,structure from CD spectrum
1,"CC(C)C[C@H](NC(=O)[C@H](CC(C)C)NC(=O)[C@H](CC(C)C)NC(=O)[C@H](CCCCN)NC(=O)[C@@H](CC(C)C)NC(=O)[C@H](CC(C)C)NC(=O)[C@H](CCCCN)NC(=O)[C@H](CC(C)C)NC(=O)[C@H](Cc1c[nH]c2ccccc12)NC(=O)[C@H](CC(C)C)NC(=O)[C@@H](CCCCN)NC(=O)[C@@H](CC(C)C)NC(=O)[C@H](CC(C)C)NC(=O)[C@H](CC(C)C)NC(=O)[C@H](CCCCN)NC(=O)[C@H](CC(C)C)NC(=O)[C@H](CC(C)C)NC(=O)[C@@H](N)CCCCN)C(=O)O [Hel 13-5D3, NH2-Lys Leu Leu Lys Leu Leu D-Leu D-Lys Leu Trp Leu Lys D-Leu Leu Lys Leu Leu Leu-COOH] (H-KLLKLL[dL][dK]LWLKL[dL]KLLL-OH)",reduced their α-helix structures and assumed a random-like structure
2,"CC(C)C[C@H](NC(=O)[C@H](CC(C)C)NC(=O)[C@@H](CC(C)C)NC(=O)[C@H](CCCCN)NC(=O)[C@@H](CC(C)C)NC(=O)[C@H](CC(C)C)NC(=O)[C@H](CCCCN)NC(=O)[C@@H](CC(C)C)NC(=O)[C@H](Cc1c[nH]c2ccccc12)NC(=O)[C@H](CC(C)C)NC(=O)[C@@H](CCCCN)NC(=O)[C@@H](CC(C)C)NC(=O)[C@H](CC(C)C)NC(=O)[C@H](CC(C)C)NC(=O)[C@H](CCCCN)NC(=O)[C@H](CC(C)C)NC(=O)[C@H](CC(C)C)NC(=O)[C@@H](N)CCCCN)C(=O)O [Hel 13-5D5, NH2-Lys Leu Leu Lys Leu Leu D-Leu D-Lys Leu Trp D-Leu Lys Leu D-Leu Lys D-Leu Leu Leu-COOH] (H-KLLKLL[dL][dK]LW[dL]KL[dL]K[dL]LL-OH)",reduced their α-helix structures and assumed a random-like structure
3,"H-KLLKLLLKLWLKLLKLLL-OH [Hel 13-5, NH2-Lys Leu Leu Lys Leu Leu Leu Lys Leu Trp Leu Lys Leu Leu Lys Leu Leu Leu-COOH]",assumed an α-helix structure
